The record followed here is publication PMC8933431.

The chains behind the UniProt entries cited, without tags or fusion partners. Residues count along the entry.
UniProt P02769, residues 25-607: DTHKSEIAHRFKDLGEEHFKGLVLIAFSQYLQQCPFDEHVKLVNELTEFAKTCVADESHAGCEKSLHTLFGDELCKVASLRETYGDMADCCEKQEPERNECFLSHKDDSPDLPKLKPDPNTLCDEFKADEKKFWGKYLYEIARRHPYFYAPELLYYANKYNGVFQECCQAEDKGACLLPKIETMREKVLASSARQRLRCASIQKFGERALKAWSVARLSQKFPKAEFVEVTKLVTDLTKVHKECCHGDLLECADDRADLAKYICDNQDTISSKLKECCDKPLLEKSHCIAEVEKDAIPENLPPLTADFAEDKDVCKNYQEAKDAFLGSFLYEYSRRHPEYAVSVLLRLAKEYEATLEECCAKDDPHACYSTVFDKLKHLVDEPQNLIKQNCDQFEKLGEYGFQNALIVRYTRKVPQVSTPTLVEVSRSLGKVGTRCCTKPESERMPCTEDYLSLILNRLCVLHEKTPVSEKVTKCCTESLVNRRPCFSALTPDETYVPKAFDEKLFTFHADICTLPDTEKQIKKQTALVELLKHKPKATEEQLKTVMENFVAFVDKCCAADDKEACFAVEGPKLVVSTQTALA

For assay [1], the target named is bovine serum albumin (bovine) (UniProt P02769). Nature of the assay: cross-linking; BSA 1 mg/mL in >4 M urea or >1 M GdnHCl for 1 h at room temperature, then DOPA2 (0.17 mM) or DSS (0.5 mM); SDS-PAGE; both purified.
Assay [2] has the same target. Nature of the assay: cross-linking; BSA 1 mg/mL in citric acid-Na2HPO4 buffer pH 3.0, DOPA2 (0.17 mM) or DSS (0.5 mM) for 10 s; SDS-PAGE; both purified.

No constants are given. Whether binding was seen depends on the method and setting.

With “bovine serum albumin (from UniProt P02769 25-607)”, the results for the binding result in assay [1] and in assay [2] were “no binding (condition: >4 M urea or >1 M GdnHCl)” and “no binding (condition: pH 3.0)”, respectively.
